Consider 13 molecules from patent publication US20240076395A1.

Amino acid sequences for entries named in this document (tags omitted). Residues count along the entry.
UniProt A9YYE7, residues 24-186: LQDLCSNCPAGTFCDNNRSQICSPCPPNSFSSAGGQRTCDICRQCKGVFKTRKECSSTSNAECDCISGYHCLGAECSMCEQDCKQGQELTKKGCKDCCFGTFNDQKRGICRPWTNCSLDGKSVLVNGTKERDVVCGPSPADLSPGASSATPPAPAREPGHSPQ

These are yes or no findings as the source states them, for the method shown. Some results given as binding are weak or reduced against the parent protein; the word gives no strength.

The target of assay [1] is Cyno CD137-his (cynomolgus monkey) (UniProt A9YYE7). Nature of the assay: BLI (Octet Red 96).
The target in assay [2] is cynomolgus-CD137 ECD (cynomolgus) (UniProt A9YYE7). Nature of the assay: ELISA of Fab in supernatants of SS320 cells.

B1: Anti-CD137 clone 2-9 IgG2 wt (antibody, V domains shown)
VH: QVQLVQSGAEVKKPGASVKASCKASGFNIQDTYIHWVRQAPGQGLEWMGRIDPANGNSEYAQKFQGRVTMTRDTSTSTVYMELSSLRSEDTAVYYCTTGNLHYALMDYWGQGTSVTVSS
VL: DIQMTQSPSSVSASVGDRVTITCKASQPINTYLSWYQQKPGKAPKLLIYRVNRKVDGVPSRFSGSGSGTDFTLTISSLQPEDFATYYCLQYLDFPYTFGGGTKLEIKR
B1: in assay [1], the binding result is “binds”.

B2: Clone 18 Fab (Fab, V domains shown)
VH: QVQLVQSGAEVKKPGASVKVSCQASGFNIKDTYIHWVRQAPGQGLGWMGKIDPANGMTEYAQKFQGRVTVTRDTSTSTVYMELSSLRSEDTAVYYCTTGNLHYALMDYWGQGTSVTVSS
VL: DIQMTQSPSSVSASVGDRVTITCKASQAPNTYLSWYQQKPGKAPKLLIYRANRMVDGVPSRFSGSGSGTDFTLTISSLQPEDFATYYCLQYEDFPYTFGGGTKLEIKR
For the molecule B2, the binding entry in assay [2] was “binds”.

B3: Clone 3 Fab (Fab, V domains shown)
VH: QVQLVQSGAEVKKPGASVKVSCKASGFNPKDTYIHWVRQAPGQGLEWMGRIDPANGFTEYAQKFQGRVTMTRDTSTSTVYMELSSLRSEDTAVYYCTTGNLHYALMDYWGQGTSVTVSS
VL: DIQMTQSPSSVSASVGDRVTITCKASQAINTYLSWYQQKPGKAPKLLIYRANRMVDGVPSRFSGSGSGTDFTLTISSLQHEDFATYYCLQSDDFPYTFGGGTKLEIKR
Regarding B3, in assay [2], the binding entry is recorded as “binds”.

B4: Clone 35 Fab (Fab, V domains shown)
VH: QVQLVQSGAEVKKPGASVKVSCKASGFNINDTYIHWVRQAPGQGLEWMGRIDPANGYTEYAQKFQGRVTMTRDTSTSTVYMELSSLRSEDTAVYYCTTGNLHYALMDYWGQGTSVTVSS
VL: DIQMTQSPSSVSASVGDRVTITCKASQAIATYLSWYQQKPGKAPKLLIYRANRMVDGVPSRFSGSGSGTDFTLTISSLQPEDFATYYCLQFQDFPYTFGGGTKLEIKR
As to B4, the binding result in assay [2] is “binds”.

B5: Clone 9 Fab (Fab, V domains shown)
VH: QVQLVQSGAEVKKPGASVKVSCKASGFNLKDTYIHWVRQAPGQGLEWMGKIDPANGNTEYAQKFQGRVTMTRDTSTSTVYMELSSLRSEDTAVYYCTTGNLHYALMDYWGQGTSVTVSS
VL: DIQMTQSPSSVSASVGDRVTITCKASQAIATYLSWYQQKPGKAPKLLIYRANRMYDGVPSRFSGSGSGTDFTLTISSLQPEDFATYYCLQFDDFPYTFGGGTKLEIKR
Take B5: the binding result in assay [2] is given as “binds”.

B6: Clone 2-9 Fab (Fab, V domains shown)
VH: QVQLVQSGAEVKKPGASVKASCKASGFNIQDTYIHWVRQAPGQGLEWMGRIDPANGNSEYAQKFQGRVTMTRDTSTSTVYMELSSLRSEDTAVYYCTTGNLHYALMDYWGQGTSVTVSS
VL: DIQMTQSPSSVSASVGDRVTITCKASQPINTYLSWYQQKPGKAPKLLIYRVNRKVDGVPSRFSGSGSGTDFTLTISSLQPEDFATYYCLQYLDFPYTFGGGTKLEIKR
As to B6, in assay [2], the binding entry is given as “binds”.

B7: Clone 19 Fab (Fab, V domains shown)
VH: QVQLVQSGAEVKKPGASVKVSCKASGFNMKDTYIHWVRQAPGQGLEWMGKIDPANGATEYAQKFQGRVTMTRDTSTSTVYMELSSLRSEDTAVYYCTTGNLHYGLMDYWGQGTSVTVSS
VL: DIQMTQSPSSVSASVGDRVTITCKASQAINTYLSWYQQKPGKAPKLLIYRANRMGDGVPSRFSGSGSGTDFTLTISSLQPEDFATYYCLQSDDFPYTFGGGTKLEIKR
For the molecule B7, the binding result in assay [2] is listed as “binds”.

B8: Clone 23 Fab (Fab, V domains shown)
VH: QVQLVQSGAEVKKPGASVKVSCKASGFNIKDTYIHWVRQAPGQGLEWMGKIDPANGQTEYAQKFQGRVTMTRDTSTSTVYMELSSLRSEDTAVYYCTTGNLHYALMDYWGQGTSVTVSS
VL: DIQMTQSPSSVSASVGDRVTITCKASQAINTYLSWYQQKPGKAPKLLIYRANRMVGGVPSRFSGSGSGTDFTLTISSLQPEDFATYYCLQYRDFPYTFGGGTKLEIKR
Consider B8, for which the binding result in assay [2] is “binds”.

B9: Clone 20 Fab (Fab, V domains shown)
VH: QVQLVQSGAEVKKPGASVKVSCKASGFNMKDTYIHWVRQAPGQGLEWMGKIDPANGDTEYAQKFQGRVTMTRDTSTSTVYMELSSLRSEDTAVYYCTTGNLHYALMDYWGQGTSVTVSS
VL: DIQMTQSPSSVSASVGDRVTITCKASQAINTYLSWYQQKPGKAPKLLIYRANRAVDGVPSRFSGSGSGTDFTLTISSLQPEDFATYYCLQYLDFPYTFGGGTKLEIKR
Take B9: the binding entry in assay [2] is “binds”.

B10: Clone 2-11 Fab (Fab, V domains shown)
VH: QVQLVQSGAEVKKPGASVKVSCKASGFNIKDTYIHWVRQAPGQGLEWMGKIDPANGGTEYAQKFQGRVTMTRDTSTSTVYMELSSLRSEDTAVYYCTTGNLHYALMDYWGQGTSVTVSS
VL: DIQMTQSPSSVSASVGDRVTITCKASQPINTYLSWYQQKPGKAPKLLIYRVNRKVDGVPSRFSGSGSGTDFTLTISSLQPEDFATYYCLQYVDFPYTFGGGTKLEIKR
For the molecule B10, the binding result in assay [2] is listed as “binds”.

B11: Clone 5 Fab (Fab, V domains shown)
VH: QVQLVQSGAEVKKPGASVKVSCKASGFNIRDTYIHWVRQAPGQGLEWMGKIDPANGNTEYAQKFQGRVTMTRDTSTSTVYMELSSLRSEDTAVYYCTTGNLHYGLMDYWGQGTSVTVSS
VL: DIQMTQSPSSVSASVGDRVTITCKASQAINTYHSWYQQKPGKAPKLLIYRVNRMVDGVPSRFSGSGSGTDFTLTISSLQPEDFATYYCLQYLDFPYTFGGGTKLEIKR
For B11, the binding entry in assay [2] is given as “binds”.

B12: Clone 33 Fab (Fab, V domains shown)
VH: QVQLVQSGAEVKKPGASVKVSCKASGFNIKDTYIQWVRQAPGQGLEWMGKIDPANGNTMYAQKFQGRVTMTRDTSTSTVYMELSSLRSEDTAVYYCTTGNLHYALMDYWGQGTSVTVSS
VL: DIQMTQSPSSVSASVGDRVTITCKASQTINTYLSWYQQKPGKAPKLLIYRANRMPDGVPSRFSGSGSGTDFTLTISSLQPEDFATYYCLQYDDFPYTFGGGTKLEIKR
With B12, the binding entry in assay [2] was “binds”.

B13: Clone 25 Fab (Fab, V domains shown)
VH: QVQLVQSGAEVKKPGASVKVSCKASGFNIQDTYIHWVRQAPGQGLEWMGRIDPANGNSEYAQKFQGRVTMTRDTSTSTVYMELSSLRSEDTAVYYCTTGNLHYGLMDYWGQGTSVTVSS
VL: DIQMTQSPSSVSASVGDRVTITCKASQAINTYLSWYQQKPGKAPKLLIYRDNRKVDGVPSRFSGSGSGTDFTLTISSLQPEDFATYYCLQYQDFPYKFGGGTKLEIKR
Turning to B13, the binding result in assay [2] is “binds”.
